# The supplement of paper PMC11006884
# Amino acid sequences for entries named in this document (tags omitted). A change or cut given only in a name is not applied to a line headed by its entry.
# UniProt Q8N8A6: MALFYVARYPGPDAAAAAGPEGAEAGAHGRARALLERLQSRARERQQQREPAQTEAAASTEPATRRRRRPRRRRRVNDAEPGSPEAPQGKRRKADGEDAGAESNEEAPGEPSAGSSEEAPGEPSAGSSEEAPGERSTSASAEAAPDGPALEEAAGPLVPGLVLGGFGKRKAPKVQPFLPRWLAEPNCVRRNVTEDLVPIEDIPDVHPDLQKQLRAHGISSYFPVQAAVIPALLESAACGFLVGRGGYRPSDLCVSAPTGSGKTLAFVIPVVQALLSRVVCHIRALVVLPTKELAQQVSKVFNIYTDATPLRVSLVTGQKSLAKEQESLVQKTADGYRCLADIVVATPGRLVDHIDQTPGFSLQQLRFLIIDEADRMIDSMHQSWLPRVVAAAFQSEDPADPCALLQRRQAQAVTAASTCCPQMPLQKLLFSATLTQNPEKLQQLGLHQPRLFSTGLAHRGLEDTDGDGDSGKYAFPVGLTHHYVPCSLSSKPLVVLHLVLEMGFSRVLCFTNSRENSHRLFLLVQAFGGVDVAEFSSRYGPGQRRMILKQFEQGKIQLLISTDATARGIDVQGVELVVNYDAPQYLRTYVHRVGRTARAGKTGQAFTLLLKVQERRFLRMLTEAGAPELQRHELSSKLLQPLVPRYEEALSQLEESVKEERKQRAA
# UniProt Q8N806: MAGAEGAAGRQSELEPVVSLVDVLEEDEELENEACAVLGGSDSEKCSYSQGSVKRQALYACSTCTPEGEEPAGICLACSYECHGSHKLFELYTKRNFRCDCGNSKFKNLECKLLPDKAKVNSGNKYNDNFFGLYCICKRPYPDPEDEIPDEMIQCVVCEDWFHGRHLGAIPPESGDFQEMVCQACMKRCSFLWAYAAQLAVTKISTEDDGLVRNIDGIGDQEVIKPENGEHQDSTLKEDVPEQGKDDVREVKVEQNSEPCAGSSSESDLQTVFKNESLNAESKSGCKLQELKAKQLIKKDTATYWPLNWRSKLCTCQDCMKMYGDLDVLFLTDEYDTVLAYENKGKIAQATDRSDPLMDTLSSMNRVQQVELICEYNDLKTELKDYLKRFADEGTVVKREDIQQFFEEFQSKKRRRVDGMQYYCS
# UniProt Q8WWH5: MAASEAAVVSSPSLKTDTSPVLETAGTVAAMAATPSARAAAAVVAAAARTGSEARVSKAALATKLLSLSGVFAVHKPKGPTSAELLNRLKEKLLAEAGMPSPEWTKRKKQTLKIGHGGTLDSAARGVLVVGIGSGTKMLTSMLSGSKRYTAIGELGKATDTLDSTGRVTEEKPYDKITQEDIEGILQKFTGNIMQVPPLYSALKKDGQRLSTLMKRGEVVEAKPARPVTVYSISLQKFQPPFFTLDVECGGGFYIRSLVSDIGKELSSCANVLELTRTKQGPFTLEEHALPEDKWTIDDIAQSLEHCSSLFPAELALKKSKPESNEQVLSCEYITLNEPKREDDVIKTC
# UniProt Q8N0Z6: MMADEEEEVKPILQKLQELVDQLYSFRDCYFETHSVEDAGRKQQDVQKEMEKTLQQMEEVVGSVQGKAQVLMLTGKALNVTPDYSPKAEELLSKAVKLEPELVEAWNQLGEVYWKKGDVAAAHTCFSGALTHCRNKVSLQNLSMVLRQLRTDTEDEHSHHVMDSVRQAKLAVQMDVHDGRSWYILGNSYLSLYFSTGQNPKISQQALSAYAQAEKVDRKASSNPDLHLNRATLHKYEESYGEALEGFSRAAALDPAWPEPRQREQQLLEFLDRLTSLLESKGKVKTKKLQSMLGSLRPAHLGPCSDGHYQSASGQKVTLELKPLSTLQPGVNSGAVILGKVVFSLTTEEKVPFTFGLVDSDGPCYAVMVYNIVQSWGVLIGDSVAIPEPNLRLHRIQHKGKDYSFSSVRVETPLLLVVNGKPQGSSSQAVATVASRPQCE
# UniProt Q8WUM4: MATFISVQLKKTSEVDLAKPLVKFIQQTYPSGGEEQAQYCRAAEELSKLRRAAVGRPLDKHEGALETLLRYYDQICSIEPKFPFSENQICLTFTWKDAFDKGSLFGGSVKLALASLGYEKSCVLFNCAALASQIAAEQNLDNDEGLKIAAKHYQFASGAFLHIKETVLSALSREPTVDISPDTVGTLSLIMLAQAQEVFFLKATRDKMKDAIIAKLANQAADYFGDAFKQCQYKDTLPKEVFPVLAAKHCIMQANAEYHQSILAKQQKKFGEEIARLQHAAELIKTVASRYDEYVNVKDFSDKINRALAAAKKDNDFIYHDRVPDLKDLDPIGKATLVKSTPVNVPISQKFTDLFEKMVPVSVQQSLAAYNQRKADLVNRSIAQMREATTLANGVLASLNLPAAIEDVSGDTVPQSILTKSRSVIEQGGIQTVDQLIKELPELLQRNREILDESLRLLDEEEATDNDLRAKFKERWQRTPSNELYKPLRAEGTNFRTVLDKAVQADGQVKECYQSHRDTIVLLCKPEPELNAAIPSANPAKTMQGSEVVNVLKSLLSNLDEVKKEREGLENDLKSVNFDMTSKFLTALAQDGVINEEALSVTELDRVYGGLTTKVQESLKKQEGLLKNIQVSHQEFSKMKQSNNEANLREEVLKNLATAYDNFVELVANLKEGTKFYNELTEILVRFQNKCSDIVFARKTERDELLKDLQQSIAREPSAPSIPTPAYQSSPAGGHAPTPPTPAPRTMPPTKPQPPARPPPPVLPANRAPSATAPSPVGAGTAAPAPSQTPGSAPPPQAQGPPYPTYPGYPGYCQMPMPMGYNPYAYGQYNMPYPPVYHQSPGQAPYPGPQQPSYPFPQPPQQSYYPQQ
# UniProt Q8N201, whole entry, looked up: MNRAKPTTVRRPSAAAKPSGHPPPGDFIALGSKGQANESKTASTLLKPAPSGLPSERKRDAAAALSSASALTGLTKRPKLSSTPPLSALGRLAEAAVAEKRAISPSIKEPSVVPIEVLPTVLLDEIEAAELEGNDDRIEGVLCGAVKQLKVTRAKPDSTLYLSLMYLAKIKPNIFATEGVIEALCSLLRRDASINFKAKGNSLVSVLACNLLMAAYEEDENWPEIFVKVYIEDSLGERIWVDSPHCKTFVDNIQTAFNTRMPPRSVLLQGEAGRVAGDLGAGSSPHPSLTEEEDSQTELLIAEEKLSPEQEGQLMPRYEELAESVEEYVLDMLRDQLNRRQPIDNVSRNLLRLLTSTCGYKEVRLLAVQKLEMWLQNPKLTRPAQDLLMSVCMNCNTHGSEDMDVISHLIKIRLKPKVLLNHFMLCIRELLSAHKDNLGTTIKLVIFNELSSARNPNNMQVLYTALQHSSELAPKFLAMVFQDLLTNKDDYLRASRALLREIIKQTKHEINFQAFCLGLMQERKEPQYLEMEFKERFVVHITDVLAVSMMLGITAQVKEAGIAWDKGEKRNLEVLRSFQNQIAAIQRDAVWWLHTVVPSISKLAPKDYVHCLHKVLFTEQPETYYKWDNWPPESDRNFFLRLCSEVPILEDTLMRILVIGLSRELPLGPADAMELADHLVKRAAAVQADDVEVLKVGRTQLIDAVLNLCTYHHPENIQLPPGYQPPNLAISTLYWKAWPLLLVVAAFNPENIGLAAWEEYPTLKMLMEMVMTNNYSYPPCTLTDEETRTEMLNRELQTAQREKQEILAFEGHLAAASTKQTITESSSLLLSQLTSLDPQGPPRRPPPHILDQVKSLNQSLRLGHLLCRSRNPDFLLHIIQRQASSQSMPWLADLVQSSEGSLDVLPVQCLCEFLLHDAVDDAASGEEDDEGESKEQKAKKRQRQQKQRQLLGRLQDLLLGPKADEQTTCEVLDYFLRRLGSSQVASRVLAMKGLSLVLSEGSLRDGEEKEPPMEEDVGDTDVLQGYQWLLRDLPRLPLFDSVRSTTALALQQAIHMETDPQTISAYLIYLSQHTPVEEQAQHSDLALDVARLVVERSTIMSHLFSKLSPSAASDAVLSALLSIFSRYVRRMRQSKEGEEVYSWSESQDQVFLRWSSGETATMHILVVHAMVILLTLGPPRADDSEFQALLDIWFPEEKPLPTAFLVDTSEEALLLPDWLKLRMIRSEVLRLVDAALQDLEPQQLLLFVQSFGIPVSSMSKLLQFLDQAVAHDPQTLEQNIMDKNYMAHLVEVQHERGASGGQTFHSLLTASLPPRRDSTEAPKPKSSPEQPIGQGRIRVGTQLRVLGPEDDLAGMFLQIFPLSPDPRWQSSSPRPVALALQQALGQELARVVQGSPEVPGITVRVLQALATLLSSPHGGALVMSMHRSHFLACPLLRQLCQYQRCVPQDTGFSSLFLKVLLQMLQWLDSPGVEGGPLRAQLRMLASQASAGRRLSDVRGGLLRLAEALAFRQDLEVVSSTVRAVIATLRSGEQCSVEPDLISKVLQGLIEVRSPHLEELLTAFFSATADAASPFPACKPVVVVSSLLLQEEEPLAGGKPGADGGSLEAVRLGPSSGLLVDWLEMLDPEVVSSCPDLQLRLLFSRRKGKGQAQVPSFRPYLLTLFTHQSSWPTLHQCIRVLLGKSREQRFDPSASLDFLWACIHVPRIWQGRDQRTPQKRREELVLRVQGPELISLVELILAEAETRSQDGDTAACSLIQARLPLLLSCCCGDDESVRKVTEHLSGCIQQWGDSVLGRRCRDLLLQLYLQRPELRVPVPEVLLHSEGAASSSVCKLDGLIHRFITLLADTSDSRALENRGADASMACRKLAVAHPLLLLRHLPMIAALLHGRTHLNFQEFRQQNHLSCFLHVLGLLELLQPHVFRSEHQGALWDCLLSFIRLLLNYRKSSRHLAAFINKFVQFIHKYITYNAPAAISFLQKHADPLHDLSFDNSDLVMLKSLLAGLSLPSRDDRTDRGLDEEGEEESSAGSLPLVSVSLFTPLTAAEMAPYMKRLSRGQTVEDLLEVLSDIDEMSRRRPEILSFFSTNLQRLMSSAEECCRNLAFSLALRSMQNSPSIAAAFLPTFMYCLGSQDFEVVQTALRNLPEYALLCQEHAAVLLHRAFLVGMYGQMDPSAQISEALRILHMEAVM
# UniProt Q8NFH5: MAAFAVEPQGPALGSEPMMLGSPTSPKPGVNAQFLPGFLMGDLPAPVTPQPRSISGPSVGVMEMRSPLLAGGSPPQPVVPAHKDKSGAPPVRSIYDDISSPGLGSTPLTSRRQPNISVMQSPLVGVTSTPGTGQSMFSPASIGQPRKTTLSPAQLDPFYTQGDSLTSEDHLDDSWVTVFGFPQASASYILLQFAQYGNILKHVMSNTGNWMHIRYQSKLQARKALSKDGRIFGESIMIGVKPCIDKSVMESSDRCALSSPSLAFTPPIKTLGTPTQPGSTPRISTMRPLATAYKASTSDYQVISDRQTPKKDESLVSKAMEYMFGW
# UniProt Q8WY54: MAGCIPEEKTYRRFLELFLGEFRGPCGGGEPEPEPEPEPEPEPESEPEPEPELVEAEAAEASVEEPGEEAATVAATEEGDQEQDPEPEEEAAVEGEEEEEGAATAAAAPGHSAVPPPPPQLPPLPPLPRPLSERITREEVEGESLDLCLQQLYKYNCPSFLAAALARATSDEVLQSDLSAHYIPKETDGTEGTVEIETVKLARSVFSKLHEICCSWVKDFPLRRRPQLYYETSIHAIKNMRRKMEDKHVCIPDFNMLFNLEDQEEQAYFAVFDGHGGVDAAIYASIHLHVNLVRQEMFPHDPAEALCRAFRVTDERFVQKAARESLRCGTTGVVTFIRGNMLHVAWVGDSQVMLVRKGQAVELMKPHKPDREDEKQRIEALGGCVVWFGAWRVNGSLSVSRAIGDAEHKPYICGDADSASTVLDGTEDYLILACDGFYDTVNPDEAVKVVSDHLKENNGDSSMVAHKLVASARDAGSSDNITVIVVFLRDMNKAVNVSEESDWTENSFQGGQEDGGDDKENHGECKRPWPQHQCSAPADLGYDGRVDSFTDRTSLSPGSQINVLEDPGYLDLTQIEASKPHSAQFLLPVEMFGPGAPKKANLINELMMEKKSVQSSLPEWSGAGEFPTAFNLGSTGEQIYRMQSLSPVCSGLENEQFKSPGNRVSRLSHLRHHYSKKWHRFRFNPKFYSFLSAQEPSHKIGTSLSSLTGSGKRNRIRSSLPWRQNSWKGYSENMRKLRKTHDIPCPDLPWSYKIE
# UniProt Q8N5A5: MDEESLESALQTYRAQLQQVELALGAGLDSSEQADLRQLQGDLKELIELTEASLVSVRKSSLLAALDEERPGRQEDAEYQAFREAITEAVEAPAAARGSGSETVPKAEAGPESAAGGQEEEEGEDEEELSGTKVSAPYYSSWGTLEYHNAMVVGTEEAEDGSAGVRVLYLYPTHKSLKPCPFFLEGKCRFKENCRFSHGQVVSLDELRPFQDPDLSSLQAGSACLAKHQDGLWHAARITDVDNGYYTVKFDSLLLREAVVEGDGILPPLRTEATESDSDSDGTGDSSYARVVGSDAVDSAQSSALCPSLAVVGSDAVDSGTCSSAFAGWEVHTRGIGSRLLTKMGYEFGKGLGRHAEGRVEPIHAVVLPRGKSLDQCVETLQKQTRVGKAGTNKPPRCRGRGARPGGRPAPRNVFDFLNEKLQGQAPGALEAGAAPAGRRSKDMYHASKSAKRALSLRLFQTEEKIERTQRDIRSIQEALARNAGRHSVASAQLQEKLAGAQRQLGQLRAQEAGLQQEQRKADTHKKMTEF
# The entries are a selection whose mix differs from that of the whole data set.
# Compound: COC(=O)C#Cc1ccccc1 [methyl 3-phenylpropiolate]
# Assay: log2 ratio of iodoacetamide-alkyne labeling of the cysteine site, DMSO over compound (competition); higher = stronger covalent engagement of the cysteine by the compound, active = 1 or more
# Conditions: 500 µM; treatment time 1 h; system: HEK293T cell lysate
# Method in brief: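 Reporter intensities give each cysteine's log2 competition ratio as the mean of control channels over the mean of compound channels. The samples were HEK293T lysate (2 mg/mL) given vehicle or electrophile (500 µM, 1 h, ambient temperature), then iodoacetamide alkyne (1 h), followed by click coupling to sCIP-TMT reagents, pooling, trypsin digestion overnight at 37 °C, streptavidin enrichment, acid elution, Orbitrap Eclipse LC-MS/MS with FAIMS and FragPipe quantification. Duplicate channels and three replicates were run, and cysteines quantified in only one replicate were discarded.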
row,Target,log2 ratio of iodoacetamide-alkyne labeling
1,MTMR14 C429 (UniProt Q8NCE2),inactive: 0.908
2,RPTOR C86 (UniProt Q8N122),inactive: 0.596
3,DDX51 C338 (UniProt Q8N8A6),inactive: 0.461
4,UniProt Q8NBJ5_C203,inactive: 0.366
5,UniProt Q8NFC6_C2164,inactive: 0.286
6,CISD2 C92 (UniProt Q8N5K1),inactive: 0.0262
7,UniProt Q8WU20_C415,inactive: 0.241
8,UBR7 C424 (UniProt Q8N806),inactive: 0.287
9,SLC20A1 C426 (UniProt Q8WUM9),inactive: 0.487
10,PPP4R1 C645 (UniProt Q8TF05),inactive: 0.853
11,UniProt Q8N6Q8_C5,inactive: 0.701
12,TRUB1 C269 (UniProt Q8WWH5),inactive: 0.163
13,RAB2B C154 (UniProt Q8WUD1),inactive: 0.12
14,DDX51 C238 (UniProt Q8N8A6),inactive: 0.0717
15,TTC5 C439 (UniProt Q8N0Z6),inactive: 0.0252
16,UniProt Q8WVT3_C160,inactive: 0.533
17,PDCD6IP C250 (UniProt Q8WUM4),inactive: 0.0203
18,INTS1 C1701 (UniProt Q8N201),inactive: -0.0332
19,FBXO30 C592 (UniProt Q8TB52),inactive: 0.622
20,NUP35 C255 (UniProt Q8NFH5),inactive: 0.901
21,PPM1E C4 (UniProt Q8WY54),inactive: 0.248
22,ZGPAT C377 (UniProt Q8N5A5),inactive: 0.342

# Shown bar-delimited: part of the list above.
row | Target | log2 ratio of iodoacetamide-alkyne labeling
7 | UniProt Q8WU20_C415 | inactive: 0.241
8 | UBR7 C424 (UniProt Q8N806) | inactive: 0.287
